Assay results published in the supplement of paper PMC10849652.
This is one part of the list.

Sequences of proteins named here, by UniProt entry; tags and fusion partners are left off. A change or cut given only in a name is not applied to a line headed by its entry.
UniProt P30305: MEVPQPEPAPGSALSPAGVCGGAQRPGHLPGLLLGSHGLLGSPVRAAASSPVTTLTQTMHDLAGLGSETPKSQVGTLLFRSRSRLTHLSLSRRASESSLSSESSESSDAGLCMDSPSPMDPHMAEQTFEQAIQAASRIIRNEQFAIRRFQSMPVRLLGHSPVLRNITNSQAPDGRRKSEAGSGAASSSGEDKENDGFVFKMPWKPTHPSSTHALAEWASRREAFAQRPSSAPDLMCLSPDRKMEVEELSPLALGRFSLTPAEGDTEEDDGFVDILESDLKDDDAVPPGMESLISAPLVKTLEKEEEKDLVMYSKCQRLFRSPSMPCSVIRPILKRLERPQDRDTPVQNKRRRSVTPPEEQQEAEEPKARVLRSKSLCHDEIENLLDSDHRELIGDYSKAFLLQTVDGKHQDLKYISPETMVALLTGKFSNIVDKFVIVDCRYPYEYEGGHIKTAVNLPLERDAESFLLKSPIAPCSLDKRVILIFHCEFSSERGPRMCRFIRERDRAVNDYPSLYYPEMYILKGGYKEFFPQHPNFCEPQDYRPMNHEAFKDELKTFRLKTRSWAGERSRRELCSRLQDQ
UniProt O75794: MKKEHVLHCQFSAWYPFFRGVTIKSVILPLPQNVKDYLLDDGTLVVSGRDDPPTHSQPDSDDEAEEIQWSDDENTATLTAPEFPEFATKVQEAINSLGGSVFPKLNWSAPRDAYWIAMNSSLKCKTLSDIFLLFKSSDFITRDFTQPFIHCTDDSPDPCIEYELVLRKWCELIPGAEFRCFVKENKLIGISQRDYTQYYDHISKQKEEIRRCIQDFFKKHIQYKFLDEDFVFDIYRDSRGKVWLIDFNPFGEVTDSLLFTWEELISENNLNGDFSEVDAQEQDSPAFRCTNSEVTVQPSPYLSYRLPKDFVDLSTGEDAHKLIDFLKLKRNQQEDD
UniProt O43822: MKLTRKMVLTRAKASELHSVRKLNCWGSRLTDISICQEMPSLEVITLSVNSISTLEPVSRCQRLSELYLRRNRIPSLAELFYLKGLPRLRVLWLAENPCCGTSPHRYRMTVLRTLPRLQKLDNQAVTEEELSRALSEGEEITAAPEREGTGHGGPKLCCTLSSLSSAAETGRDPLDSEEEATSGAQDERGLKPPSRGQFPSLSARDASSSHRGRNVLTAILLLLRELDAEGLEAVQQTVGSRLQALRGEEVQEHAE
UniProt P23528, whole entry, looked up: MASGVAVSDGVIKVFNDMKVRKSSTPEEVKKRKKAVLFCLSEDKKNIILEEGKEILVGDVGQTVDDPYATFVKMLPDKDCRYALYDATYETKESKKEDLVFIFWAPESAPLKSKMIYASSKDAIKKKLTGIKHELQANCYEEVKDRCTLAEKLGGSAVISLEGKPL
UniProt Q99618: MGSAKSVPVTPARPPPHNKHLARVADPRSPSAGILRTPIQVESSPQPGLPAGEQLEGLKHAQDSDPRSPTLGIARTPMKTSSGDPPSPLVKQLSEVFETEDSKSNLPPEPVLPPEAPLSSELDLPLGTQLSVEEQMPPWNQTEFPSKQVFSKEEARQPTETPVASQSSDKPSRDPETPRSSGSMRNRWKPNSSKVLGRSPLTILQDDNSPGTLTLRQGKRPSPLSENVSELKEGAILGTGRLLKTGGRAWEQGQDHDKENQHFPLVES
UniProt Q92879: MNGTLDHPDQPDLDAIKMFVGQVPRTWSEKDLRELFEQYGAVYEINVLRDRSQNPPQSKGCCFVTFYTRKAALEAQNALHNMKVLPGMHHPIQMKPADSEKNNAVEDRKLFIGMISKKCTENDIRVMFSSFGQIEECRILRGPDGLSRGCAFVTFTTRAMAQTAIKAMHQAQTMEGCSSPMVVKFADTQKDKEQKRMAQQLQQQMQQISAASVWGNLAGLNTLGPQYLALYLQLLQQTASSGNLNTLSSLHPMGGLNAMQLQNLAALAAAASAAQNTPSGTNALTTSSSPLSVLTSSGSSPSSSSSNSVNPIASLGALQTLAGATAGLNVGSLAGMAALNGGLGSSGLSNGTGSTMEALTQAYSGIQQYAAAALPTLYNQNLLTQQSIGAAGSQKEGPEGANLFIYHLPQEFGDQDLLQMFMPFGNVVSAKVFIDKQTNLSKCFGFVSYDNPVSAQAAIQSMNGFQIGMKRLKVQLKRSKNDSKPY
UniProt O95674: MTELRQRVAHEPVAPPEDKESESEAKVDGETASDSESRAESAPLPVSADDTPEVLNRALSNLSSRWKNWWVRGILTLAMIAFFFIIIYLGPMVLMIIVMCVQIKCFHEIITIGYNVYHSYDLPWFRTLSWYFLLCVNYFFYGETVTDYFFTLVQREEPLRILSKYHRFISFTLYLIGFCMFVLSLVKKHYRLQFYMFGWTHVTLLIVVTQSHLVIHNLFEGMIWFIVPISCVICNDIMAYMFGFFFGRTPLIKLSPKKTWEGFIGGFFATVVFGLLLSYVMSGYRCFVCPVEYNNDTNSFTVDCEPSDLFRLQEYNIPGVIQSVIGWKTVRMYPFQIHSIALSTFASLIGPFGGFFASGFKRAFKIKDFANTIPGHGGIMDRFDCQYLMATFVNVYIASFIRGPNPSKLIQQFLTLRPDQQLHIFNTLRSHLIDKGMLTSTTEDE
UniProt P49454: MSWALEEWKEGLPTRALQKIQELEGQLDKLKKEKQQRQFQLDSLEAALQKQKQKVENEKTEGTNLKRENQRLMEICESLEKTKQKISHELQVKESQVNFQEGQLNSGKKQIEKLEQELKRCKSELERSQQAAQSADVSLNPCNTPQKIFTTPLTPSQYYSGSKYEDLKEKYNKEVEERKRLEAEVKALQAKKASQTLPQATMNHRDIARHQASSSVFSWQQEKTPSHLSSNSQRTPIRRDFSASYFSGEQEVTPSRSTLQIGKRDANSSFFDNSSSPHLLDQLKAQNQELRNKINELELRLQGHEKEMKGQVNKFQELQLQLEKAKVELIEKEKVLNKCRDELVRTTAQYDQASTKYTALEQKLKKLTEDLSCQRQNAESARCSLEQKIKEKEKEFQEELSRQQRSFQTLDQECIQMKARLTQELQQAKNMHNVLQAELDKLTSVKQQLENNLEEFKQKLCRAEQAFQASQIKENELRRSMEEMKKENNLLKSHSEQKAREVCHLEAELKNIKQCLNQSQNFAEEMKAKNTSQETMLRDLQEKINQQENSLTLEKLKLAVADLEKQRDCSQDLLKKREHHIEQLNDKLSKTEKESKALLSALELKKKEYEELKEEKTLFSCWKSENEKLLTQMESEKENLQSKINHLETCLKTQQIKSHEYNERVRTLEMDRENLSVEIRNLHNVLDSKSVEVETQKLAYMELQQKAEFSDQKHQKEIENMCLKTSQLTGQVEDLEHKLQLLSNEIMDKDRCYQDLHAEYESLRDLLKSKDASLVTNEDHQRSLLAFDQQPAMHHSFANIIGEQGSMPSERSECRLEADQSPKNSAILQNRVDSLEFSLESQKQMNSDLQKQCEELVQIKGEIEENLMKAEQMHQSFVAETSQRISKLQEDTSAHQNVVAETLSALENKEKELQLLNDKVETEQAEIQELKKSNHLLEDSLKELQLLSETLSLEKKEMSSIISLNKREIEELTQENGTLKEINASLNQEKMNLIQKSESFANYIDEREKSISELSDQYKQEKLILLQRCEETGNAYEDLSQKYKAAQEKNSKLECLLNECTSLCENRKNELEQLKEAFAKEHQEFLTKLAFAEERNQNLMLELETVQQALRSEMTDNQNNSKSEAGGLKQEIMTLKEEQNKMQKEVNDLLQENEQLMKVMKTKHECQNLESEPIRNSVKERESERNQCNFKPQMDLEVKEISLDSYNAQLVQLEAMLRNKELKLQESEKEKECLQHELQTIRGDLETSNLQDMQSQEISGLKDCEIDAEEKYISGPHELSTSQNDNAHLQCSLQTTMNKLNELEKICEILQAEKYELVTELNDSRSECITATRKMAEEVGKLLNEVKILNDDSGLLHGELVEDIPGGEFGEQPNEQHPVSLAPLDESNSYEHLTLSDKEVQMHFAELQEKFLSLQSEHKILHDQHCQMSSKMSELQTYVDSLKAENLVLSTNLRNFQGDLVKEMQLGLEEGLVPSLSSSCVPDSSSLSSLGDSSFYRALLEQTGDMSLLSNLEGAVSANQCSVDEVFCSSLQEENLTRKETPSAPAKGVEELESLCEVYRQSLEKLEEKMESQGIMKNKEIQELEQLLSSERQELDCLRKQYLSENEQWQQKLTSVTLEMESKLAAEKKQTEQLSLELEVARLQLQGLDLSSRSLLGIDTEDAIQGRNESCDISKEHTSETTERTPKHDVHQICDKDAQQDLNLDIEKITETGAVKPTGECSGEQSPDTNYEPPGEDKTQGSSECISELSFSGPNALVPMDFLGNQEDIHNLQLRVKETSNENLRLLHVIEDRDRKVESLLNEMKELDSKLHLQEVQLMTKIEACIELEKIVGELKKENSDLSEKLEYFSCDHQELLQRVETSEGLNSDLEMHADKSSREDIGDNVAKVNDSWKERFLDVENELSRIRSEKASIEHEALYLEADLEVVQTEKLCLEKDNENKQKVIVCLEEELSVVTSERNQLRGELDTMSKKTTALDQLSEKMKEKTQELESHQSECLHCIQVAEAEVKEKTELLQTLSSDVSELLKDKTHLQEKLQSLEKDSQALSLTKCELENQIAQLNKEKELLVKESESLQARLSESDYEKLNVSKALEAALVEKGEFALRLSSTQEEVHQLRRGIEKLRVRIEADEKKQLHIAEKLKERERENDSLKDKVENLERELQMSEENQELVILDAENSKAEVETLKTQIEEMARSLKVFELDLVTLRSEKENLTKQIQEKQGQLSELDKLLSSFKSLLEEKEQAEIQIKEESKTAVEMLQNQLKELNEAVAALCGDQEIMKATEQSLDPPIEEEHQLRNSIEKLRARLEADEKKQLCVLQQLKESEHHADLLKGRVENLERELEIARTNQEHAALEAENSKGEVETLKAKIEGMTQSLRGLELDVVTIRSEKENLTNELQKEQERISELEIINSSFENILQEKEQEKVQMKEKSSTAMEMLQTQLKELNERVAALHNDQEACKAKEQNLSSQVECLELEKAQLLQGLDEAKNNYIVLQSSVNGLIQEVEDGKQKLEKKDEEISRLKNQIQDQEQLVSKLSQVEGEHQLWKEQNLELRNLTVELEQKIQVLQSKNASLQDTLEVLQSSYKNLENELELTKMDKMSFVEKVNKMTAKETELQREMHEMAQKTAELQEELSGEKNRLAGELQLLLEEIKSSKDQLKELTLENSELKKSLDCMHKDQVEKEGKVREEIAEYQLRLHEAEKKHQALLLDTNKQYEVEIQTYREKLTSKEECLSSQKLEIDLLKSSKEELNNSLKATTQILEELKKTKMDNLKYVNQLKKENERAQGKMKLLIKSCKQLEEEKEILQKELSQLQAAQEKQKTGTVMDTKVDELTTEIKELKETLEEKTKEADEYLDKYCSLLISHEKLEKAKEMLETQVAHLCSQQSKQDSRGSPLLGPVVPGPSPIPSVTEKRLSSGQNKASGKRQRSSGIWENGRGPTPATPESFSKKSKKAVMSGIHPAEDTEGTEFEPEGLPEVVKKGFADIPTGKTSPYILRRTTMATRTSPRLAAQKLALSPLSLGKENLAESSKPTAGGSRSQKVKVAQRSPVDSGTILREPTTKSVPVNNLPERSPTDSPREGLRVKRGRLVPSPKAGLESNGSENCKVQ
UniProt P17676: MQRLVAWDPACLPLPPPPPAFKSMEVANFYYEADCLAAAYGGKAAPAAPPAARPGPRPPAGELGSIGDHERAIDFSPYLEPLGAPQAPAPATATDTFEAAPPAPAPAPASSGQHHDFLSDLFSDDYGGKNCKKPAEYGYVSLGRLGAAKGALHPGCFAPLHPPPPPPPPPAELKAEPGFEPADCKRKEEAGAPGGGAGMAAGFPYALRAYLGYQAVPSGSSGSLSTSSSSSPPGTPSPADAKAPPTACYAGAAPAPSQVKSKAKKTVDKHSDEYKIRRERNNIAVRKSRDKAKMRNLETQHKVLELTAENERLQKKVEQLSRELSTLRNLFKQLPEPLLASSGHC
UniProt Q9NRR3: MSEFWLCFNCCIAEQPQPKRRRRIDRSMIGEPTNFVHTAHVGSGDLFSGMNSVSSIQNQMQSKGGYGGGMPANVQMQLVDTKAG
UniProt Q8NHZ8, whole entry, looked up: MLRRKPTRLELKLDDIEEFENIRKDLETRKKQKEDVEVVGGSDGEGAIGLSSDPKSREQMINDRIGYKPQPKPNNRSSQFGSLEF
UniProt P50750, whole entry, looked up: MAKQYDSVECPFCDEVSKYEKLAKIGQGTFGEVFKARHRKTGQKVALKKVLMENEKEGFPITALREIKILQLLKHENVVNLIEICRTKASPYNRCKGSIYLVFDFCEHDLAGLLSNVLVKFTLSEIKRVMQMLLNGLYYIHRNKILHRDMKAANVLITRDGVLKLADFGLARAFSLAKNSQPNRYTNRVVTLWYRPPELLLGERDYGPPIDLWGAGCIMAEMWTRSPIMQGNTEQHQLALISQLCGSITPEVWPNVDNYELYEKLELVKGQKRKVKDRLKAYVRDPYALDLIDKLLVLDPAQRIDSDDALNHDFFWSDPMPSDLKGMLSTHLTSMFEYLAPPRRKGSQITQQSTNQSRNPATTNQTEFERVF

Compound: O=C1NC(=O)C(c2cnc3ccccn23)=C1c1cn2c3c(cc(F)cc13)CN(C(=O)N1CCCCC1)CC2
Assay: log2 fold change, soluble protein after heating vs DMSO (PISA); higher = thermal stabilisation; K562 lysate, 10 uM; active = over 0.2 and 3.5 SD of the protein, either way, in both replicates (recomputed)
In short: (§1)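 Thermal stability, expressed as log-two fold change relative to solvent controls, is given from duplicates. Crude K562 extract in PBS pH 7.4 with 1 mM MgCl2, at 1 mg/mL protein, was treated with 10 μM compound for 30 min and heated in aliquots for 3 min across 48°C-58°C. After pooling, adjustment to 0.5% NP-40 at 4°C and centrifugation at 21,000xg for 90 min, supernatant protein was measured by TMTpro 16plex LC-MS/MS with channel sums equalised.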

log2 fold change, inactive:
CDC25B (UniProt P30305) -0.003
CDCA2 (UniProt Q69YH5) 0.032
CEBPZOS (UniProt A8MTT3) -0.025
CDCA5 (UniProt Q96FF9) -0.04
CDKN1C (UniProt P49918) 0.134
CFAP47 (UniProt Q6ZTR5) 0.323
CDKN2AIP (UniProt Q9NXV6) -0.022
CDC123 (UniProt O75794) -0.032
CDC73 (UniProt Q6P1J9) -0.026
CDK2 (UniProt P24941) 0.202
CDK5RAP3 isoform 4 (UniProt Q96JB5) 0
CDC37L1 (UniProt Q7L3B6) -0.039
CFAP410 (UniProt O43822) -0.043
CEBPZ (UniProt Q03701) 0.023
CFL1 (UniProt P23528) -0.006
CDK5 (UniProt Q00535) 0.179
CDCA3 (UniProt Q99618) -0.025
CENPQ (UniProt Q7L2Z9) 0.028
CELF1 isoform 4 (UniProt Q92879) 0.022
CDR2L (UniProt Q86X02) -0.035
CENPK (UniProt Q9BS16) -0.02
CENPE (UniProt Q02224) -0.043
CDS2 (UniProt O95674) -0.065
CENPF (UniProt P49454) 0.01
CEBPB (UniProt P17676) 0.127
CDC42SE2 (UniProt Q9NRR3) 0.029
CEP170 (UniProt Q5SW79) -0.035
CDC26 (UniProt Q8NHZ8) -0.085
CD97 (UniProt P48960) -0.092
CETN2 (UniProt P41208) -0.071
CDK9 isoform 2 (UniProt P50750) 0.402
CDC16 (UniProt Q13042) -0.006

Compound: c1cn2cc(-c3ccc4cn[nH]c4c3)nc(Nc3ccc(N4CCOCC4)cc3)c2n1 [entospletinib]
Assay: as above
In short: as §1

log2 fold change, inactive:
CDC25B (UniProt P30305) -0.012
CDCA2 (UniProt Q69YH5) 0.012
CEBPZOS (UniProt A8MTT3) -0.037
CDCA5 (UniProt Q96FF9) -0.03
CDKN1C (UniProt P49918) 0.048
CFAP47 (UniProt Q6ZTR5) -0.054
CDKN2AIP (UniProt Q9NXV6) 0.013
CDC123 (UniProt O75794) 0.043
CDC73 (UniProt Q6P1J9) -0.017
CDK2 (UniProt P24941) 0.039
CDK5RAP3 isoform 4 (UniProt Q96JB5) 0.012
CDC37L1 (UniProt Q7L3B6) 0.018
CFAP410 (UniProt O43822) 0.068
CEBPZ (UniProt Q03701) 0.047
CFL1 (UniProt P23528) 0.02
CDK5 (UniProt Q00535) 0.036
CDCA3 (UniProt Q99618) -0.039
CENPQ (UniProt Q7L2Z9) 0.047
CELF1 isoform 4 (UniProt Q92879) 0.013
CDR2L (UniProt Q86X02) 0.004
CENPK (UniProt Q9BS16) 0
CENPE (UniProt Q02224) -0.043
CDS2 (UniProt O95674) -0.028
CENPF (UniProt P49454) -0.017
CEBPB (UniProt P17676) 0.028
CDC42SE2 (UniProt Q9NRR3) 0.041
CEP170 (UniProt Q5SW79) -0.126
CDC26 (UniProt Q8NHZ8) 0.018
CD97 (UniProt P48960) -0.026
CETN2 (UniProt P41208) 0
CDK9 isoform 2 (UniProt P50750) 0.038
CDC16 (UniProt Q13042) -0.015
